# Reference: the supplement of paper PMC4604168 (melanoma cell lines)
# Some of the results follow. Single values are uncertain, as repeats are few or missing.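 The apoptosis fraction was the count of cleaved-PARP antibody-stained nuclei relative to all DNA-stained nuclei, imaged in 1,536-well plates. Screening doses were set so most cells survived, and baseline and induced cleaved-PARP levels vary greatly across cell lines.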
# Tested on: WM3526
# Experiment: cleaved PARP positive nuclei fraction relative to DMSO control; melanoma cells; higher = more apoptosis
# Conditions: library dose: low library concentration; 72 h
row,SMILES,cleaved PARP positive nuclei fraction
1,"CC(C)(C)c1cnc(CSc2cnc(NC(=O)C3CCNCC3)s2)o1 + OCCn1cc(-c2cnc3nnn(Cc4ccc5ncccc5c4)c3n2)cn1 [PF04217903] (first compound 0.01 µM, partner dose 1 µM)",176%
2,"Cc1cc(N2CCOCC2)cc2[nH]c(-c3c(NC[C@@H](O)c4cccc(Cl)c4)cc[nH]c3=O)nc12 + O=C(O)C(=O)Nc1sc2c(c1C(=O)O)CCNC2 [TCS401] (first compound 0.2 µM, partner dose 1.66667 µM)",18.9%
3,"COc1cc(Nc2ncc(F)c(Nc3ccc4c(n3)NC(=O)C(C)(C)O4)n2)cc(OC)c1OC [Tamatinib] + Cn1cc(/C=C2\C(=O)Nc3cccnc32)c2ccccc21 [GW441756] (first compound 0.4 µM, partner dose 0.4 µM)",100%
4,"NC(=O)Nc1cc(-c2cccc(F)c2)sc1C(=O)N[C@H]1CCCNC1 + NCC(=O)Nc1ccc(-n2nc(C(F)(F)F)cc2-c2ccc3c(ccc4ccccc43)c2)cc1 [OSU03012] (first compound 0.02 µM, partner dose 1 µM)",131%
5,"Nc1cccc2c1CN(C1CCC(=O)NC1=O)C2=O (stereo unspecified) [lenalidomide] + O=C(Nc1ccccc1)c1cc([N+](=O)[O-])ccc1Cl [GW9662] (first compound 1 µM, partner dose 2 µM)",67.3%
6,"Cn1cncc1[C@@](N)(c1ccc(Cl)cc1)c1ccc2c(c1)c(-c1cccc(Cl)c1)cc(=O)n2C [tipifarnib] + COc1cc(N2CCC(N3CCN(C)CC3)CC2)ccc1Nc1ncc(Cl)c(Nc2ccccc2S(=O)(=O)C(C)C)n1 [NVP-TAE684] (first compound 0.01 µM, partner dose 0.08 µM)",81.9%
